Laboratory results published in article doi:10.1101/2022.02.23.481674.
Results are given in words; binding and its absence hold for the method and conditions named. Binding seen in cells or lysates may run through a third protein. Binding calls can cover weak binding; strength is not graded here. Tags and fused reporters may be left off the sequences shown.

Amino acid sequences for entries named in this document (tags omitted). A change or cut given only in a name is not applied to a line headed by its entry.
UniProt P16070: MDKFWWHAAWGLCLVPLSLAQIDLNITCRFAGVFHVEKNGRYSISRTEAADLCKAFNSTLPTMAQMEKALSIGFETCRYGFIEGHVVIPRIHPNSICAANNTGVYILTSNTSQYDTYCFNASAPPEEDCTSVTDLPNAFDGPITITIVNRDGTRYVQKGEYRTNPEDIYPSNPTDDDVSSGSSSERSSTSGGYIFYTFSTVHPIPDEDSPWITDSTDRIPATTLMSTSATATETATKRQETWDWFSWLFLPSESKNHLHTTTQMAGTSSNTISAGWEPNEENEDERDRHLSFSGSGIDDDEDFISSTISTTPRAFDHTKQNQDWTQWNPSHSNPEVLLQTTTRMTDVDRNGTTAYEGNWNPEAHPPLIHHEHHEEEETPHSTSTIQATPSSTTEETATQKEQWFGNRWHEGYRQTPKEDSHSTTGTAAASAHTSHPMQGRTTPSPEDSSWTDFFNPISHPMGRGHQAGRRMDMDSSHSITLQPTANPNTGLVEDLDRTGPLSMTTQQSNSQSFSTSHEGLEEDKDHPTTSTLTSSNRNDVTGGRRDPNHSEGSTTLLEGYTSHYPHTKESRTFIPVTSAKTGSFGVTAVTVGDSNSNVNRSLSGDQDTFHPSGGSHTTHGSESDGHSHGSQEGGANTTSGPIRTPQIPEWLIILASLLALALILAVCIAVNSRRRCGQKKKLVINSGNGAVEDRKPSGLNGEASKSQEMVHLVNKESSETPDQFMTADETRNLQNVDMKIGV

Molecular target: Flag-tagged CD44 mutant CD44.m2 (point mutations in domain II) (human) (UniProt P16070)
Assay: co-IP

B1: HA-tagged CD81 (pCMV3-HA-CD81, Sino Biological) (protein, UniProt P60033 10-236)
chain: IKYLLFVFNFVFWLAGGVILGVALWLRHDPQTTNLLYLELGDKPAPNTFYVGIYILIAVGAVMMFVGFLGCYGAIQESQCLLGTFFTCLVILFACEVAAGIWGFVNKDQIAKDVKQFYDQALQQAVVDDDANNAKAVVKTFHETLDCCGSSTLTALTTSVLKNNLCPSGSNIISNLFKEDCHQKIDDLFSGKLYLIGIAAIVVAVIMIFEMILSMVLCCGIRNSSVY
- binding: binds
